Measured values from paper PMC10163288.
The list shows a part of the results.

B1: il2ra_site1_2b5i_normal_mot_HHH_b2_04463_af2_000000056_0001_43_55_H_._HHH_b1_05929_0001_0000200010_0000001_0 (protein)
chain: SSSSDEEDERIDELFIEASRLFRKGNPEEAERVLEEAIKLAEELGDEHQLKQLEFMKEQVGSSSS
B2: il2ra_site2_3nfp_sap_19_mot_HHH_b1_04756_000000059_0001_41_55_H_._51cc31007119fa75359d0ea3f4aa2c22_0001_1_0001_0000100006_0000001_0_0001 (protein)
chain: SSSSDHAEEYLRALELLIKLAFEEGDPEAAERHLEEAEKMAEDNGDEELLEKLEELREKISSSSS
B3: il2ra_site2_2erj_normal_mot_HHH_b1_08185_000000063_0001_41_55_H_._HHH_b2_05996_0001_0000200015_0000001_0 (protein)
chain: SSSSSDEIEEEVLELIAEAAHIPDPKEAVEVLREALELAEEYGNELLRRYLELSIKDIEGSSSSS
B4: il2ra_site1_2b5i_normal_mot_0e5a94e4a5addaac739760efb25f0f5d_0001_000000246_0001_18_32_H_._HHH_b1_04316_0001_0000300016_0000001_0_af2pred_dldesign_0_af2pred (protein)
chain: SSSSTEEERARKKRMVDLIYRIRLKGDPEAVAEATRLATEALESGDPALWDRVEALAARLSSSSS
B5: il2ra_site2_3nfp_normal_mot_HHH_b1_02297_000000279_0001_41_58_H_._HHH_b2_05121_af2_0001_0000200008_0000001_0 (protein)
chain: SSSSDVEEEVKRLLEEAEEATERGDEEKVRELLSRAAHLAYEANDFELFAAVNELLEKFVQSSSS
B6: il2ra_site2_3nfp_normal_mot_HHH_b1_06589_000000230_0001_37_50_H_._HHH_b1_07685_af2_0001_0000200008_0000001_0 (protein)
chain: SSSSDEEVKKLLEEAEELLENGNPEEAKQVASRAALIAFEEGNQELYMAVAELIFKIARNSSSSS
B7: il2ra_site2_2erj_normal_mot_HHH_b1_04373_af2_000000118_0001_18_33_H_._HHH_b2_00961_af2_0001_0000900028_0000001_1 (protein)
chain: SSSSSDEEEVERRVRELLEEAEKVDLEEAYKLAVEALHLAAENRDPELLRLILEWVEKHSSSSSS
B8: il2ra_site2_2erj_sap_20_mot_91f4e0b9ef636147e55e10354d5068a9_0001_000000168_0001_33_48_H_._HHH_b1_03044_af2_0001_0000700014_0000001_0_0001_af2pred_0001_1_af2pre … (protein)
chain: SSSSDEEEERVEELLEEAKRIEDPEEAFAVLSEALEIAEENNNPELFKEVKEVLERLRRGSSSSS
B9: il2ra_site1_1z92_sap_9_mot_HHH_b2_04375_000000267_0001_42_56_H_._HHH_b2_04201_af2_0001_0000600051_0000001_0_0001 (protein)
chain: TRDIREEIEEAIKKNDDELLKEILEQAERDAGDPRLAKQFLKTMIARLLGDPEEAEKIVERIERR
B10: il2ra_site2_3nfp_sap_18_mot_11405e7faed88c9d08fdae67291e590b_0001_1_000000110_0001_14_30_H_._HHH_b2_00163_af2_0001_0000300012_0000001_0_0001 (protein)
chain: SSSSDKHERYLRAALELIERAIREGDHEIARRMLETVKSAAEDNNDEEIEELVEELEELLRSSSS
B11: il2ra_site1_3nfp_normal_mot_HHH_b1_05162_af2_000000139_0001_1_18_H_._HHH_b1_02574_af2_0001_0000600043_0000001_0 (protein)
chain: SSSSDEERREAQELLKEIMKLSKEGDKEEAKRLLEEVRELAEKANDKAAKWLVEELEKLLKSSSS
B12: il2ra_site1_2b5i_normal_mot_HHH_b2_01049_000000145_0001_39_52_H_._HHH_b2_01600_af2_0001_0000100004_0000001_0_af2pred_dldesign_0_af2pred (protein)
chain: SSSSSPKVEAAKAAAEAALAKLRARKRDKRVAFLEEALEELEETKDEKLAEELEKLALLALSSSS
B13: il2ra_site2_2erj_sap_16_mot_HHH_b2_08311_000000098_0001_42_56_H_._HHH_b2_04501_0001_0000700061_0000001_0_0001_af2pred_0001_af2pred_1_swapped (protein)
chain: SSSSSSDVEEEVERLLEEAKHVKDLREAIELLQEASKIAAERDNPELLQLVQRVFQELSSSSSSS
B14: il2ra_site2_2erj_normal_mot_HHH_b1_06554_af2_000000190_0001_44_57_H_._HHH_b2_03035_0001_0000100005_0000001_0_af2pred_0001_af2pred (protein)
chain: SSSSSDEEETRERVEELLEEAKRIPDFHEAFKLLQEADQLAVEYDDPELLELVQRVAQKLSSSSS
B15: il2ra_site1_3nfp_normal_mot_HHH_b1_02637_af2_000000026_0001_1_18_H_._HHH_b2_01529_af2_0001_0000200007_0000001_0_af2pred_0001_af2pred_1 (protein)
chain: SSSSSEELEEALRAFEEAYELYEKGDEEEAKKVLEEAIKIAEELGDENLVRFLRKALELLRSSSS
B16: il2ra_site2_3nfp_normal_mot_HHH_b1_06589_000000230_0001_37_50_H_._HHH_b2_06317_0001_0000200028_0000001_1 (protein)
chain: SSSDETKERVKELLEEVEELIRQGNEEEAQRVLAEATQVAYEGRDSEAYMLVAELAFELYQSSSS
B17: il2ra_site2_2erj_normal_mot_HHH_b1_02968_000000142_0001_22_39_H_._HHH_b1_03253_0001_0000600016_0000001_0_af2pred_0001_1_af2pred_swapped (protein)
chain: SSSSSSSAEEEVERLLEEAKHIPNLREALELAQEADEIASENNNDELIELVDRVAKELSSSSSSS
B18: il2ra_site1_3nfp_normal_mot_ems_3hC_775_af2_000000149_0001_42_60_H_._HEEHE_2142_af2_0001_0000300007_0000001_0 (protein)
chain: DEEEEIRRAVELAAKLARIPEVEVSESNGQFHVEIRGDDVQARHVSRLIEQAAKAFGIDVEVEYE
B19: il2ra_site1_3nfp_normal_mot_HHH_b1_00232_af2_000000283_0001_22_38_H_._HHH_b2_06365_0001_0000100005_0000001_0_af2pred_0001_af2pred_swapped (protein)
chain: SSSSSSSAVEQLLRHAQEAYENGNEELARRLLEKFLEALKKANIEDDFEEVEELLKELSSSSSSS
B20: il2ra_site2_2erj_sap_17_mot_HHH_b1_02566_000000063_0001_42_58_H_._HHH_b1_03002_0002_0000200009_0000001_0_0001_af2pred_0001_1_af2pred_swapped (protein)
chain: SSSSSSSVEERVEELLERAKHIRDKREALELAQEASELADEHDDPELWEEILRVARELSSSSSSS
B21: il2ra_site1_1z92_normal_mot_HHH_b1_07828_af2_000000107_0001_18_34_H_._HHH_b1_01691_0001_0000200014_0000001_0_af2pred_0001_af2pred (protein)
chain: SSSSSSDEHERIFEEAHEFAKELNNPALEWAVEALLRRYRRSGDERLREDLEKALENLSSSSSSS
B22: il2ra_site1_3nfp_sap_17_mot_HHH_b1_01159_af2_000000107_0001_1_20_H_._HHH_b1_00510_0001_0000100012_0000001_0_0001 (protein)
chain: DEEEIRREIEELLEEDPQEAMQFAMKLAHEAMRNNDPELLRVVLEALLKVTGDPSVKKLLEVARR
B23: il2ra_site2_3nfp_sap_15_mot_HHH_b1_06577_af2_000000152_0001_20_36_H_._HHH_b1_06279_af2_0001_0000100009_0000001_1_0001 (protein)
chain: SSSSSEVEEYLEAAVALLEEALEQGDEEAARRHLELVKLAAEDAGDEEIKERLEEIEEELSSSSS
B24: il2ra_site2_2erj_normal_mot_HHH_b2_05633_000000270_0001_38_52_H_._HHH_b1_00328_0001_0000100005_0000001_0 (protein)
chain: SSSSDEEYRRVAELLAEAQELALEGNPEEAEKLLEEARQIAEEANSEALERYVEFAHRDISSSSS
B25: il2ra_site1_3nfp_normal_mot_cc4219192d8ccd35c40e7b68f9a57604_0001_af2_000000124_0001_16_32_H_._HHH_b2_07250_0001_0000300003_0000001_0_af2pred_0001_af2pred_1_swa … (protein)
chain: SSSSSALEWVEEKAEEAFENNDKFELRALYKLLREALERHGDPEAKEVLEKVEELLRELQSSSSS
B26: il2ra_site1_1z92_sap_16_mot_96c1ddac3a320f3fb7c3d0e7ac756063_0001_000000061_0001_1_12_H_._HHH_b1_02840_0001_0000300034_0000001_0_0001 (protein)
chain: SSSSSSEERSVRIVVRVLVELAGLSEEQEEELEELAKRLLEEGLSFLEISKLLDELAVRLSSSSS
B27: il2ra_site1_2b5i_normal_mot_HHH_b2_04910_000000118_0001_1_19_H_._HHH_b2_07035_af2_0001_0000200008_0000001_0_af2pred_dldesign_0_af2pred (protein)
chain: SSSSSSSAALELFLAANKAYQAGKEEEAKRLLEEALRLAREAGATSLVKMIESALKSLSSSSSSS
B28: il2ra_site2_3nfp_sap_14_mot_HHH_b1_04032_000000208_0001_43_56_H_._67c3a9dcc8d22c6e038fb00e67f47ca1_0001_af2_0001_0000100001_0000001_0_0001 (protein)
chain: SEEEQERIEELEEKLKKAVERNDKELIEEILAEIAHFVAEFSDDPEAFRLYSLAAEALLAVAQRS
B29: il2ra_site1_1z92_sap_17_mot_HHH_b1_00661_af2_000000033_0001_38_50_H_._HHH_b1_06922_af2_0001_0000200008_0000001_0_0001_af2pred_dldesign_0_af2pred (protein)
chain: SPRDEALARAAELADAPPEDLRRLLDAARRAAGGDPAAARARLTRWLTKLGVPAEAIELAAECLP
B30: il2ra_site2_2erj_normal_mot_b4a479b5f6325cf1502d73870e4e4edc_0001_000000131_0001_18_32_H_._HEEHE_0898_0001_0000100002_0000001_0_af2pred_0001_af2pred (protein)
chain: SDEEDVELLIRIHAERLGVPSVEVEVHNGELTVTFEGDTRSARRASELAEWIAKLLNIKVTIEVE
B31: il2ra_site2_3nfp_sap_22_mot_HHH_b2_04319_af2_000000252_0001_42_56_H_._HHH_b2_01596_af2_0001_0000500023_0000001_0_0001_af2pred_0001_1_af2pred_swapped (protein)
chain: SSSSSSSEEEVERLLEEAKRIEDEEEVREILLKAAQIAYELKDHELFALVLRVYEELLSSSSSSS
B32: il2ra_site1_2b5i_sap_11_mot_HHH_b2_01684_af2_000000128_0001_1_17_H_._81c47014b626a55087c6b8b4ed7fd288_0001_1_af2_0001_0000100001_0000001_0_0001_af2pred_dldesign … (protein)
chain: SSSSSSPIEEAIAEARRLAAAGRRREALETLEKAYKLAGANNDEETEEKIEELAKELSASSSSSS
B33: il2ra_site1_1z92_normal_mot_01209686ea234b34325f918445e6eade_0001_af2_000000154_0001_18_33_H_._544ef0e38e907b7890d4414ebae48784_0001_1_0001_0000200004_0000001_0 (protein)
chain: TREELIEKLAELLGVPPEAVKRDLEALERLLGDPRRAVRNFLIALRQLGKLTPEVEELLEEIART
B34: il2ra_site2_3nfp_normal_mot_HHH_b1_00660_af2_000000199_0001_40_57_H_._HHH_b2_07891_0001_0000100003_0000001_0 (protein)
chain: SSSSDEEEEVERLIERVKELIEEGNPEEARKVVARAAALAFEVNNFELFAKILELLALLASSSSS
B35: il2ra_site2_3nfp_sap_18_mot_HHH_b1_02060_af2_000000092_0001_1_15_H_._HHH_b1_04055_0001_0000900056_0000001_0_0001 (protein)
chain: SSSSDRAEEYLKLALELLELLEELGDEEALEKLLEMLELAAESNNDEEAKRLIEEVREELSSSSS
B36: il2ra_site1_2b5i_normal_mot_HHH_b2_04910_000000118_0001_1_19_H_._HHH_b1_00060_af2_0001_0000700046_0000001_0_af2pred_dldesign_0_af2pred (protein)
chain: SSSSSAEARRARELFLEAERLHQAGKEEEAKKLLEEALRLARAGKAPLLARIIELALSQLESSSS
B37: il2ra_site1_3nfp_sap_20_mot_HHH_b1_08027_af2_000000041_0001_1_17_H_._HHH_b1_02266_0001_0000200013_0000001_0_0001_af2pred_0001_af2pred (protein)
chain: SSSSSDSEEVRELLKRALEALENGNPEEARELAEEALEIAREAGSENLRKFIEVALKLINGSSSS

The binders below were run against il2ra, P01589 (assay: yeast display titration).

Apparent Kd, inactive:
B1 no binding seen
B2 no binding seen
B3 no binding seen
B4 no binding seen
B5 no binding seen
B6 no binding seen
B7 no binding seen
B8 no binding seen
B9 no binding seen
B10 no binding seen
B11 no binding seen
B12 no binding seen
B13 no binding seen
B14 no binding seen
B15 no binding seen
B16 no binding seen
B17 no binding seen
B18 no binding seen
B19 no binding seen
B20 no binding seen
B21 no binding seen
B22 no binding seen
B23 no binding seen
B24 no binding seen
B25 no binding seen
B26 no binding seen
B27 no binding seen
B28 no binding seen
B29 no binding seen
B30 no binding seen
B31 no binding seen
B32 no binding seen
B33 no binding seen
B34 no binding seen
B35 no binding seen
B36 no binding seen
B37 no binding seen

10 neighbouring records already listed, quoted:
Apparent Kd, inactive:
B8 no binding seen
B9 no binding seen
B10 no binding seen
B11 no binding seen
B12 no binding seen
B13 no binding seen
B14 no binding seen
B15 no binding seen
B16 no binding seen
B17 no binding seen
